Data reported in PubChem BioAssay (NCATS).
Inconclusive results, whose numbers are uncertain, are shown with a selection of clear calls. Where the call is inconclusive, the potency comes from a doubtful curve fit. Activity calls are given as the source filed them. The call rests on the fitted dose curve; in most records, active means well fitted cell-killing curve with a large enough effect; inconclusive means small, poorly fitted or top-dose-only effect, or effect the other way; inactive means no such curve, though single readings can be large or run the other way.

Assay: Quantitative High-Throughput drug screen in 47 multiple myeloma cell lines against the NCATS MIPE library collection: KMS28BM_JCRB cell viability assay (AID 1919874); further: nearly all actives have a fitted effect of over 35% in size
Conditions: CellTiter-Glo ATP, 48 h; series mostly up to 45.8 µM
How it was run: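 Myeloma cells (500/well) treated with MIPE 4.0 compounds for 48 h at 37 °C, 5% CO2. Viability read as ATP via CellTiter-Glo luminescence after 5 min at RT; DMSO-only wells = 100%, media-only = 0% viability.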
Potency means the concentration at half of the fitted maximal effect.

SMILES | Potency
O=C(O)c1cccc(-c2noc(-c3ccccc3F)n2)c1 | inactive
C=CC(=O)Nc1cccc(Sc2nc(Nc3ccc(N4CCN(C)CC4)cc3)ncc2Cl)c1 | inconclusive: 4690 nM [cytotoxic, partial curve, poor fit]
NC(CO)(CO)CCc1ccc(Sc2cccc(OCc3ccccc3)c2)cc1Cl | active: 11800 nM
C=C1C(=O)[C@@]23C(CC[C@@H]1[C@H]2O)[C@@]12CO[C@]3(O)[C@@H](O)[C@@H]1C(C)(C)CC[C@@H]2O (stereo not given in full) | active: 2350 nM
O=C1NC(=O)C(c2ccccc2[N+](=O)[O-])=C1Nc1ccc(O)c(Cl)c1 | inconclusive: 743 nM [rising, full curve, poor fit]
CCCCCCCCOc1ccccc1C(=O)Nc1ccc(C(=O)OCC[N+](C)(CC)CC)cc1 | inconclusive: 935 nM [cytotoxic, full curve, poor fit]
Cc1oncc1C(=O)Nc1ccc(C(F)(F)F)cc1 | inconclusive: 1480 nM [cytotoxic, full curve, poor fit]
COc1cc2c(cc1OC)CN(CCc1ccc(NC(=O)c3cc(OC)c(OC)cc3NC(=O)c3cnc4ccccc4c3)cc1)CC2 | inconclusive: 18700 nM [cytotoxic, partial curve, poor fit]
C[N+]1(C)[C@@H]2C[C@@H](OC(=O)C(O)(c3cccs3)c3cccs3)C[C@H]1[C@@H]1O[C@@H]12 | inactive
C[C@H](NC(=O)[C@@H](O)c1cc(F)cc(F)c1)C(=O)N[C@@H]1C(=O)N(C)c2ccccc2-c2ccccc21 | inactive

Two of the compounds above, field by field:
O=C1NC(=O)C(c2ccccc2[N+](=O)[O-])=C1Nc1ccc(O)c(Cl)c1
  Potency: inconclusive: 743 nM [rising, full curve, poor fit]
Cc1oncc1C(=O)Nc1ccc(C(F)(F)F)cc1
  Potency: inconclusive: 1480 nM [cytotoxic, full curve, poor fit]
